From patent US20240141414A1, “CELL-FREE BIOSENSORS WITH DNA STRAND DISPLACEMENT CIRCUITS” (Northwestern University, priority 2021, published 2024)
For at least one compound, name, drawing or mass did not settle the structure.

Protein sequences, listed by entry. Tags and fused reporters are not part of them. Chains listed by the source or under a name are the forms on record and can include a tag or linker.
UniProt P04483, other isoform, or with tags, fused parts or gaps: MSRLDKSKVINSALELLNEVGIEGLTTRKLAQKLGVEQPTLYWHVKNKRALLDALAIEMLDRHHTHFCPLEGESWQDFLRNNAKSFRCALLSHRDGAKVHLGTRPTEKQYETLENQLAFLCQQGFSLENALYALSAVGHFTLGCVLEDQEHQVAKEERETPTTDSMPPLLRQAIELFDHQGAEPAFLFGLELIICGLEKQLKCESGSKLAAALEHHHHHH

Biological target: T1, TetR (Escherichia coli, UniProt P04483)
T1 construct: made in house; host or cells: E. coli Rosetta 2(DE3)pLysS, pET-28c plasmid (pJBL701)
Assay type: biochemical
Conditions: TetR-regulated InvadeR output induced with the ligand (aTc 10 μM)
Text: Next, we sought to determine whether the transcription of InvadeR can be regulated with an aTF, thus creating a ligand-responsive biosensor that uses TMSD outputs. This required us to insert an aTF operator sequence in between the T7 promotor and InvadeR sequence to allow an aTF to regulate transcription. […] To test if this spacing remained important in the TMSD platform, we used TetR as our model aTF to determine the optimum spacing for efficient repression in the presence of TetR and efficient transcription in the absence of TetR [41]. […] However, robust fluorescence signal was observed without TetR when using a 2-bp spacer, which was reduced to nearly baseline levels when regulated by TetR. […]
Using the 2-bp spacer, we next determined whether TetR can be de-repressed with its cognate ligand, anhydrotetracycline (aTc) to allow transcription of InvadeR (FIG. 3c). […]
Regulated IVT reactions additionally included a purified aTF at the indicated concentration and were equilibrated at 37° C. for ˜10 minutes. Immediately prior to plate reader measurements, 2 ng of T7 RNAP and, optionally, a ligand at the indicated concentration were added to the reaction. Reactions were then characterized on a plate reader as described in Plate reader quantification and micromolar equivalent fluorescein (MEF) standardization.

Which “time until fluorescence is visible” value does the source give for `CN(C)[C@@H]1C(O)=C(C(N)=O)C(=O)[C@@]2(O)C(O)=C3C(=O)c4c(O)cccc4[C@@](C)(O)[C@H]3C[C@@H]12` [tetracycline] here?
Its value is ~10 min.
